In paper PMC9763423:
No constants are given. Whether binding was seen depends on the method and setting. In cells and extracts the contact can be indirect. Some entries that bind do so weakly or less than the wild type.

The chains behind the UniProt entries cited, without tags or fusion partners.
UniProt Q07820: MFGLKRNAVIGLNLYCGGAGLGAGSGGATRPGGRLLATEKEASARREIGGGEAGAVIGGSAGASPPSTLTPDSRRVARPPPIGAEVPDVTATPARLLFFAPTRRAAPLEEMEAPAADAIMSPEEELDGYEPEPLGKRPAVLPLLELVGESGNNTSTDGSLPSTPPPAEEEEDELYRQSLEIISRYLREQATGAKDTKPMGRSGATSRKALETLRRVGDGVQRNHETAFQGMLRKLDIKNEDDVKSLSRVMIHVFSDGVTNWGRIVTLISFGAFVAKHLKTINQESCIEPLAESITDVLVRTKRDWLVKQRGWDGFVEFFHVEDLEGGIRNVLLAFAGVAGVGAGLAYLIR

Experiments:
[1] = target: myeloid cell leukemia-1 (MCL-1) (human (endogenous in CAL27R)), Q07820; assay: co-IP; endogenous MCL-1 and deubiquitinases, CAL27R sgCtrl and TRAF4 knockout cells treated with/without IR (2 Gy) for 20 min; primary antibody and Protein A/G agarose beads, immunoblot; settings: remark: other sources report otherwise
[2] = target: myeloid cell leukemia-1 (MCL-1) (human (endogenous in CAL27R)) (UniProt Q07820); assay: as above

B1: USP13, Q92995 1-863 (enzyme)
chain: MQRRGALFGMPGGSGGRKMAAGDIGELLVPHMPTIRVPRSGDRVYKNECAFSYDSPNSEGGLYVCMNTFLAFGREHVERHFRKTGQSVYMHLKRHVREKVRGASGGALPKRRNSKIFLDLDTDDDLNSDDYEYEDEAKLVIFPDHYEIALPNIEELPALVTIACDAVLSSKSPYRKQDPDTWENELPVSKYANNLTQLDNGVRIPPSGWKCARCDLRENLWLNLTDGSVLCGKWFFDSSGGNGHALEHYRDMGYPLAVKLGTITPDGADVYSFQEEEPVLDPHLAKHLAHFGIDMLHMHGTENGLQDNDIKLRVSEWEVIQESGTKLKPMYGPGYTGLKNLGNSCYLSSVMQAIFSIPEFQRAYVGNLPRIFDYSPLDPTQDFNTQMTKLGHGLLSGQYSKPPVKSELIEQVMKEEHKPQQNGISPRMFKAFVSKSHPEFSSNRQQDAQEFFLHLVNLVERNRIGSENPSDVFRFLVEERIQCCQTRKVRYTERVDYLMQLPVAMEAATNKDELIAYELTRREAEANRRPLPELVRAKIPFSACLQAFSEPENVDDFWSSALQAKSAGVKTSRFASFPEYLVVQIKKFTFGLDWVPKKFDVSIDMPDLLDINHLRARGLQPGEEELPDISPPIVIPDDSKDRLMNQLIDPSDIDESSVMQLAEMGFPLEACRKAVYFTGNMGAEVAFNWIIVHMEEPDFAEPLTMPGYGGAASAGASVFGASGLDNQPPEEIVAIITSMGFQRNQAIQALRATNNNLERALDWIFSHPEFEEDSDFVIEMENNANANIISEAKPEGPRVKDGSGTYELFAFISHMGTSTMSGHYICHIKKEGRWVIYNDHKVCASERPPKDLGYMYFYRRIPS
binding [1]: binds

B2: DUB3 (enzyme, UniProt Q6R6M4 1-530)
chain: MEDDSLYLGGEWQFNHFSKLTSSRPDAAFAEIQRTSLPEKSPLSSEARVDLCDDLAPVARQLAPRKKLPLSSRRPAAVGAGLQNMGNTCYENASLQCLTYTPPLANYMLSREHSQTCQRPKCCMLCTMQAHITWALHSPGHVIQPSQALAAGFHRGKQEDAHEFLMFTVDAMKKACLPGHKQVDHHSKDTTLIHQIFGGCWRSQIKCLHCHGISDTFDPYLDIALDIQAAQSVKQALEQLVKPEELNGENAYHCGLCLQRAPASKTLTLHTSAKVLILVLKRFSDVTGNKLAKNVQYPECLDMQPYMSQQNTGPLVYVLYAVLVHAGWSCHDGHYFSYVKAQEGQWYKMDDAKVTACSITSVLSQQAYVLFYIQKSEWERHSESVSRGREPRALGAEDTDRRATQGELKRDHPCLQAPELDERLVERATQESTLDHWKFPQEQNKTKPEFNVRKVEGTLPPNVLVIHQSKYKCGMKNHHPEQQSSLLNLSSTTRTDQESVNTGTLASLQGRTRRSKGKNKHSKRALLVCQ
binding [2]: binds
